No constants are given. Whether binding was seen depends on the method and setting. In cells and extracts the contact can be indirect. Binding calls can cover weak binding; strength is not graded here. Where a sequence is shown, tags or fusion partners need not be part of it.

Amino acid sequences for entries named in this document (tags omitted). A change or cut given only in a name is not applied to a line headed by its entry.
UniProt Q9SGT7: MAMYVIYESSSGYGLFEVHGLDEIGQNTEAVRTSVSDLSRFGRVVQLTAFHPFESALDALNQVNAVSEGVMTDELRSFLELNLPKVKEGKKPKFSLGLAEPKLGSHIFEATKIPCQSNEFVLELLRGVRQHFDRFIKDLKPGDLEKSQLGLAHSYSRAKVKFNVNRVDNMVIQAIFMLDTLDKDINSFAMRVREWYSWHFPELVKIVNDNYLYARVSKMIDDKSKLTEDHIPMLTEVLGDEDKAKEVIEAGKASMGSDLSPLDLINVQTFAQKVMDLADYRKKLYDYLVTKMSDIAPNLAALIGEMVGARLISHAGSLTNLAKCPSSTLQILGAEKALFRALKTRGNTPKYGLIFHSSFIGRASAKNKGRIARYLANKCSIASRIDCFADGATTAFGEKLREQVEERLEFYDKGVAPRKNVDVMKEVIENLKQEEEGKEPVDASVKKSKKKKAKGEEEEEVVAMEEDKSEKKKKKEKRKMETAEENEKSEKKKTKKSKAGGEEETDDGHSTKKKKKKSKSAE

Experiment [1] addresses T1, FIB2 fused to cYFP (Arabidopsis thaliana) (UniProt Q94AH9).
T1 sequence: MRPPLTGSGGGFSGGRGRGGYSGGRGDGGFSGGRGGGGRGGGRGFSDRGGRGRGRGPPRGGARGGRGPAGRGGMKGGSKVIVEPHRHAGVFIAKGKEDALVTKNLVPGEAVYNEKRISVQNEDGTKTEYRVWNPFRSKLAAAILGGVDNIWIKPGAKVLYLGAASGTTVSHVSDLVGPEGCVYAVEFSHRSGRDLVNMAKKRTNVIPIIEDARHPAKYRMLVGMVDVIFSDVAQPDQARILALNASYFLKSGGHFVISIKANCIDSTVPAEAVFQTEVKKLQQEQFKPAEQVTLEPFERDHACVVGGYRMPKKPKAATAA
The experiment in a line: split reporter; BiFC in Arabidopsis mesophyll protoplasts; nYFP and cYFP fusions from pBiFCt-2in1-NN, PEG transformation; YFP signal by confocal microscopy after 16 h to 24 h in the dark (legend: 24 h at 25 °C); RFP as internal marker for transformation.

The target in experiment [2] is NOP56 fused to cYFP (Arabidopsis thaliana) (UniProt Q9SGT7). Described as above.

On to “HD2A fused to nYFP (Arabidopsis thaliana)”, for which the binding result in experiment [1] is “binds”.

B1: HD2B fused to nYFP (protein, UniProt Q56WH4 1-306)
chain: MEFWGVAVTPKNATKVTPEEDSLVHISQASLDCTVKSGESVVLSVTVGGAKLVIGTLSQDKFPQISFDLVFDKEFELSHSGTKANVHFIGYKSPNIEQDDFTSSDDEDVPEAVPAPAPTAVTANGNAGAAVVKADTKPKAKPAEVKPAEEKPESDEEDESDDEDESEEDDDSEKGMDVDEDDSDDDEEEDSEDEEEEETPKKPEPINKKRPNESVSKTPVSGKKAKPAAAPASTPQKTEEKKKGGHTATPHPAKKGGKSPVNANQSPKSGGQSSGGNNNKKPFNSGKQFGGSNNKGSNKGKGKGRA
In the case of B1, the binding entry in experiment [2] is on record as “binds”.

The record behind these values is PMC10298649.
